From doi:10.1101/2025.01.26.634929

Target: AGO1 fused with C-terminal Flag- and HA-epitope tags (e-AGO1) (human) (UniProt Q9UL18)
Assay: affinity purification with mass spectrometry

binding: binds
B1: RBM14 (protein, UniProt Q96PK6 1-669)
chain: MKIFVGNVDGADTTPEELAALFAPYGTVMSCAVMKQFAFVHMRENAGALRAIEALHGHELRPGRALVVEMSRPRPLNTWKIFVGNVSAACTSQELRSLFERRGRVIECDVVKDYAFVHMEKEADAKAAIAQLNGKEVKGKRINVELSTKGQKKGPGLAVQSGDKTKKPGAGDTAFPGTGGFSATFDYQQAFGNSTGGFDGQARQPTPPFFGRDRSPLRRSPPRASYVAPLTAQPATYRAQPSVSLGAAYRAQPSASLGVGYRTQPMTAQAASYRAQPSVSLGAPYRGQLASPSSQSAAASSLGPYGGAQPSASALSSYGGQAAAASSLNSYGAQGSSLASYGNQPSSYGAQAASSYGVRAAASSYNTQGAASSLGSYGAQAASYGAQSAASSLAYGAQAASYNAQPSASYNAQSAPYAAQQAASYSSQPAAYVAQPATAAAYASQPAAYAAQATTPMAGSYGAQPVVQTQLNSYGAQASMGLSGSYGAQSAAAATGSYGAAAAYGAQPSATLAAPYRTQSSASLAASYAAQQHPQAAASYRGQPGNAYDGAGQPSAAYLSMSQGAVANANSTPPPYERTRLSPPRASYDDPYKKAVAMSKRYGSDRRLAELSDYRRLSESQLSFRRSPTKSSLDYRRLPDAHSDYARYSGSYNDYLRAAQMHSGYQRRM

These are yes or no findings as the source states them, for the method shown. In cells and extracts the contact can be indirect. Here binding means that the protein was enriched with, or labelled near, the bait; the list need not be complete.
